In patent US20160176956A1 (Novartis, published 2016):
These are yes or no findings as the source states them, for the method shown.

Biological target: hBaffR (human)
Experiment: ELISA on coated antigen, detection with anti-Fab-AP, fluorescence signal intensity

B1: Antibody 7 (antibody, human IgG1, lambda, V domains shown)
VH: QVQLVESGGGLVKPGGSLRLSCAASGFTFSSYVVHWVRQAPGKGLEWVGRIRLETHGYAAEYAASVKGRFTISRDDSKNTLYLQMNSLKTEDTAVYYCARVERSKSGFDNWGQGTLVTVSS
VL: QSVLTQPPSVSGAPGQRVTISCTGSSSNIGAGYSVHWYQQLPGTAPKLLIYGQSERPSGVPDRFSGSKSGTSASLAITGLQAEDEADYYCQSWDSSQTLVVFGGGTKLTVLG
notes: germlined clone of NOV0806 (HCDR2-matured NOV0442_VL[Y49,G50,N51Q]); human IgG1; final lead; also called NOV0958; NOV958
binding: no binding (tested: not given on the sheet)
